Assay results as given in publication PMC12040169 (PLOS Biology, 2025).
The list shows a part of the results.

Test system: T1, CTL2-GFP (C. trachomatis L2/434/Bu, GFP-expressing)
T1 construct: L2/434/Bu, GFP-expressing
Set-up: species or system HeLa; Intracellular C. trachomatis growth in HeLa cells, bulk GFP fluorescence relative to DMSO
Conditions: bulk GFP, single well; 28.5 h, 10 µM; inhibitor

Row | Compound | % of control remaining
1 | O=C(C1CCCCC1)N1CCC(n2c(=O)oc3ccccc32)CC1 [CBK284348] | 121.424%
2 | OCCNc1nc(-c2ccccc2)cn2ccnc12 [CBK066379] | 89.0881%
3 | CCC12CN3CC(CC)(CN(C1)C3c1c(C)[nH]c3ccccc13)C2=O (centres unmarked) [CBK265547] | 126.39%
4 | Cc1cc(C)n(CCCn2cncc2-c2cn(C)nc2C)n1 [CBK281772] | 117.18%
5 | COc1ccc(Cl)cc1N/C=C(/C#N)c1nc(-c2cc3cc([N+](=O)[O-])ccc3oc2=O)cs1 [CBK263014] | 147.1%
6 | CCCc1[nH]n(-c2ccc([N+](=O)[O-])cc2)c(=O)c1/C=N/N1CCN(C)CC1 [CBK262781] | 108.584%
7 | CN1CCN(Cc2n[nH]c(=S)n2-c2cccc(C#N)c2)CC1 [CBK015465] | 111.868%
8 | O=C(O)c1ccc(S(=O)(=O)NC2CCS(=O)(=O)C2)cc1 (centres unmarked) [CBK262477] | 105.426%
9 | COc1ccc(S(=O)(=O)NCc2ccccn2)cc1NC(C)=O [CBK269554] | 128.682%
10 | O=C(O)c1ccc(S(=O)(=O)c2ccc3c(c2)C(=O)N(c2nccs2)C3=O)cc1 [CBK261189] | 111.512%
11 | CN1C2CCCC1CC(OC(=O)c1cccc3[nH]cnc13)C2 (centres unmarked) [CBK090162] | 143.575%
12 | CC(C)(C)OC(=O)N1CCN(CCC(=O)O)CC1 [CBK287143] | 113.277%
13 | CC(=O)c1ccc(OCC(=O)Nc2cnc(-c3cccc(C)c3)c(-c3ccc(N)cc3)n2)cc1 [CBK036722] | 146.288%
14 | O=C(NCCCc1nc2cc(F)ccc2[nH]1)[C@@H]1C[C@@H]2C=C[C@H]1C2 [CBK281665] | 113.879%
15 | O=C(N[C@H]1CO[C@H]2[C@@H]1OC[C@@H]2Nc1nccc(-c2cccs2)n1)c1ccccc1 [CBK289516] | 82.1276%
16 | Oc1ccccc1/C=N/Nc1nnc(-c2ccccc2)c(-c2ccccc2)n1 [CBK262003] | 100%
17 | CN1CCN(C(c2ccccc2)C(O)C(=O)c2c[nH]c3ccccc23)CC1 (centres unmarked) [CBK267823] | 100.48%
18 | COc1ccccc1Oc1ccc(S(=O)(=O)N2CCOCC2)cc1S(=O)(=O)N1CCOCC1 [CBK265176] | 113.708%
19 | Cc1nn(C)c(C)c1CN(C(=O)C(C)Oc1cccc(F)c1)C1CC1 (centres unmarked) [CBK281479] | 118.171%
20 | O=C1CC(C(=O)Nc2ccccn2)c2ccccc2N1 (centres unmarked) [CBK297771] | 120.774%
21 | CC1CCCN(CC(O)c2ccc3c(c2)CC(C)N3C(=O)C2CC2)C1 (centres unmarked) [CBK282125] | 163.762%
22 | C#CCNC(=O)c1nn(-c2nc3ccccc3s2)c2ccccc12 [CBK048486] | 155.904%
23 | CC(=O)N1CCN(c2cncc(-c3ccc(O)cc3)n2)CC1 [CBK126948T] | 99.1573%
24 | CN1CCN(c2nc(-c3cccc4ncccc34)cnc2N)CC1 [CBK063465] | 118.718%
25 | Cc1ccc(S(=O)(=O)CCc2noc(-c3n[nH]c4ccccc34)n2)cc1 [CBK288598] | 118.403%

Copied from the list:
`O=C(C1CCCCC1)N1CCC(n2c(=O)oc3ccccc32)CC1` [CBK284348] – % of control remaining: 121.424%
`CC(=O)N1CCN(c2cncc(-c3ccc(O)cc3)n2)CC1` [CBK126948T] – % of control remaining: 99.1573%

Remaining list, next part:

Row | Compound | % of control remaining
26 | CN1CCCC(NC(=O)CCCOc2ccccc2F)C1 (centres unmarked) [CBK282072] | 103.773%
27 | CN(C)C(=O)CSc1cnc2ccccc2n1 [CBK086626] | 123.137%
28 | CN1CCN(NC(=O)CN(C)S(=O)(=O)c2cc(Cl)ccc2Cl)CC1 [CBK267366] | 177.361%
29 | OCCN(Cc1cccnc1)Cc1cccn1-c1ccc(F)cc1F [CBK283042] | 111.415%
30 | COCCNc1nc(-c2ccccc2OC)ccc1C(=O)NCCNC(C)=O [CBK105974] | 106.472%
31 | CCNc1cc(-c2ccc(Cl)cc2)ncn1 [CBK090880] | 173.729%
32 | Cc1ccc(-c2ccc(N3CCN(C(=O)c4ccco4)CC3)nc2)cc1C [CBK037775] | 81.7044%
33 | O=C(CN1CCCc2ccccc21)c1ccsc1 [CBK138333] | 124.03%
34 | CSCCC(C(=O)O)n1c(S)nnc1-c1ccc2ccccc2n1 (centres unmarked) [CBK269230] | 160.729%
35 | Cc1ccc(N2NC(=O)/C(=C/c3ccc(-c4ccc5c(c4)C(=O)NC5=O)o3)C2=O)cc1C [CBK262963] | 116.782%
36 | Cc1cc(NC2CC3CCCC(C2)N3C)nc(N)n1 (centres unmarked) [CBK170333] | 139.955%
37 | O=S(=O)(Nc1ccc(-c2nnn[nH]2)cc1)c1ccc(F)c(C(F)(F)F)c1 [CBK154759] | 108.219%
38 | O=C(O)C1CCCCC1C(=O)Nc1ccc(S(=O)(=O)N2CCOCC2)cc1 (centres unmarked) [CBK268010] | 129.926%
39 | CC(=O)N1CCC2(C/C=C/C[C@H]3CN(Cc4nccs4)CC[C@H]3NC(=O)CNC2=O)CC1 [CBK292169] | 111.689%
40 | COc1ccc(CN2Cc3cccc(C(=O)O)c3C2=O)cc1OC [CBK291237] | 168.298%
41 | O=C1NCC2(C/C=C/CCOc3ccccc31)CCN(C(=O)c1ccncc1)CC2 [CBK292018] | 93.0613%
42 | O=C(Nc1sc2c(c1C(=O)NCCc1ccccc1)CCC2)c1sc2ccccc2c1Cl [CBK266379] | 143.84%
43 | COCCNC(=O)c1nn(-c2cccc(C(C)C)c2)cc1O [CBK304884] | 126.303%
44 | CCCCC(NC(=O)c1cc2ccccc2[nH]1)C(=O)O (centres unmarked) [CBK286647] | 113.79%
45 | Cn1ccnc1C(NC(=O)c1ccncc1)c1ccc(F)c(F)c1 (centres unmarked) [CBK283808] | 92.5135%
46 | CN1CCc2c(c(NCC3CCCO3)nc3[nH]nc(N)c23)C1 (centres unmarked) [CBK287955] | 140.344%
47 | Cc1ccc(NC(=O)NCCC2=CCCCC2)cc1Cl [CBK044135] | 107.698%
48 | COCCCOc1cc(N2CCCC2)ncn1 [CBK115896] | 141.583%
49 | O=C(c1nccs1)C1CCN(C(=O)Cc2ccccc2Cl)CC1 [CBK284162] | 108.322%
50 | CCCC(=O)c1ccc(S(=O)(=O)N2CCCN(Cc3ccc(F)c(C(F)(F)F)c3)CC2)cc1 [CBK062918] | 101.114%

Structural class: those above with a CF3 group (2)
Row | Compound | % of control remaining
37 | O=S(=O)(Nc1ccc(-c2nnn[nH]2)cc1)c1ccc(F)c(C(F)(F)F)c1 [CBK154759] | 108.219%
50 | CCCC(=O)c1ccc(S(=O)(=O)N2CCCN(Cc3ccc(F)c(C(F)(F)F)c3)CC2)cc1 [CBK062918] | 101.114%
